Measurements published in the supplement of paper PMC9015667.
Where a name gives a salt, the structure may show the parent alone. The list shows a part of the results. Single values are uncertain, as repeats are few or missing.

Tested on: M229P (parental melanoma line)
Assay: reduction in cell viability relative to untreated/vehicle; higher = more growth inhibition
Details: 200 nM; 72 h

Row | SMILES | reduction in cell viability [%]
1 | O=c1[nH]c(=O)n([C@H]2C[C@H](O)[C@@H](CO)O2)cc1C(F)(F)F [Trifluridine] | < 0
2 | C[C@@H](Oc1cc(-n2cnc3ccc(CN4CCN(C)CC4)cc32)sc1C(N)=O)c1ccccc1C(F)(F)F | 6.43
3 | Cc1ccc(S(=O)(=O)N[C@@H](Cc2ccccc2)C(=O)CCl)cc1 | < 0
4 | Cn1cc(C2=C(c3ccc(Cl)cc3Cl)C(=O)NC2=O)c2ccccc21 | < 0
5 | CCc1c2c(nc3ccc(O)cc13)-c1cc3c(c(=O)n1C2)COC(=O)[C@]3(O)CC | 47.5
6 | CCC1(c2ccccc2)C(=O)NCNC1=O [Primidone] | < 0
7 | O=C1CN2Cc3c(ccc(Cl)c3Cl)N=C2N1 [anagrelide] | < 0
8 | O=NN(CCCl)C(=O)NC1CCCCC1 [Lomustine] | < 0
9 | COC(=O)Nc1nc2cc(C(=O)c3ccccc3)ccc2[nH]1 [Mebendazole] | 22.1
10 | O=C(c1ccc(F)c(F)c1Nc1ccc(I)cc1F)N1CC(O)([C@@H]2CCCCN2)C1 | 35.2
11 | NC(=O)c1ccc(I)c([N+](=O)[O-])c1 [Iniparib] | < 0
12 | CCn1c(=O)c2c(nc(/C=C/c3ccc(OC)c(OC)c3)n2C)n(CC)c1=O [Istradefylline] | < 0
13 | Cc1ccc2c(=O)c3cccc(CC(=O)O)c3oc2c1C [Vadimezan] | < 0
14 | Cc1cc(C(C)Nc2ccccc2)c2nc(N3CCOCC3)cc(=O)n2c1 (centres undefined) | < 0
15 | O=NN(CCCl)C(=O)NCCCl [Carmustine] | < 0
16 | NC(=O)[C@@H](CCC(F)(F)F)N(Cc1ccc(-c2ncon2)cc1F)S(=O)(=O)c1ccc(Cl)cc1 [Avagacestat] | < 0
17 | CNCCCC12CCC(c3ccccc31)c1ccccc12 [Maprotiline hydrochloride] | < 0
18 | COc1ccc(/C=C\c2cc(OC)c(OC)c(OC)c2)cc1NC(=O)[C@@H](N)CO [Ombrabulin] | 31.4
19 | COc1ccc(-c2nc(N3CCOCC3)c3sc(CN(C)c4ncc(C(=O)NO)cn4)cc3n2)cn1 | < 0
20 | Cc1cn2cc(C(=O)N(C)CCO)cc(N[C@@H]3CCOc4cccc(C)c43)c2n1 | < 0

Part of the list above in order of molar mass, smallest number first.
Row | SMILES | reduction in cell viability [%]
17 | CNCCCC12CCC(c3ccccc31)c1ccccc12 [Maprotiline hydrochloride] | < 0
20 | Cc1cn2cc(C(=O)N(C)CCO)cc(N[C@@H]3CCOc4cccc(C)c43)c2n1 | < 0
18 | COc1ccc(/C=C\c2cc(OC)c(OC)c(OC)c2)cc1NC(=O)[C@@H](N)CO [Ombrabulin] | 31.4

Next part

Row | SMILES | reduction in cell viability [%]
21 | CC1(C)NC(=O)N(c2ccc([N+](=O)[O-])c(C(F)(F)F)c2)C1=O [Nilutamide] | < 0
22 | COc1ccc(OC)c(-c2nnc3ccc(-c4ccc(OC)c(O[C@@H]5CCOC5)c4)nn23)c1 | 5.77
23 | O=c1ccn([C@@H]2O[C@H](CO)[C@@H](O)[C@H]2O)c(=O)[nH]1 [Uridine] | < 0
24 | Cc1ccc(C(=O)Nc2cccc(C(F)(F)F)c2)cc1Nc1nc(-c2cccnc2)nc2c1cnn2C | < 0
25 | Oc1cc(O)c(Cl)cn1 [Gimeracil] | < 0
26 | C[C@H]1O[C@@H](O[C@H]2[C@@H](O)C[C@H](O[C@H]3[C@@H](O)C[C@H](O[C@H]4CC[C@@]5(C)[C@H](CC[C@@H]6[C@@H]5C[C@@H](O)[C@]5(C)[C@@H](C7=CC(=O)OC7)CC[C@]65O)C4)O[C@@H]3C)O[C@@H]2C)C[C@H](O)[C@@H]1O [Digoxin] | 60.3
27 | COc1cc(C(=O)NS(=O)(=O)c2ccccc2C)ccc1Cc1cn(C)c2ccc(NC(=O)OC3CCCC3)cc12 [Zafirlukast] | < 0
28 | Cn1cnc2c(F)c(Nc3ccc(Br)cc3F)c(C(=O)NOCCO)cc21 | 25.5
29 | O=C(/C=C/c1cccc(S(=O)(=O)Nc2ccccc2)c1)NO [Belinostat] | 0.03
30 | CN(C)c1nc(N(C)C)nc(N(C)C)n1 [Altretamine] | < 0
31 | COc1ccc2ccc(=O)oc2c1CC=C(C)C [Ostol] | < 0
32 | CN1CC(=O)N2[C@H](c3ccc4c(c3)OCO4)c3[nH]c4ccccc4c3C[C@@H]2C1=O [Tadalafil] | < 0
33 | OC(c1cc(C(F)(F)F)nc2c(C(F)(F)F)cccc12)C1CCCCN1 (centres undefined) [Mefloquine] | < 0
34 | CN1CCN(c2ccc3nc(-c4c(N)c5c(F)cccc5[nH]c4=O)[nH]c3c2)CC1 [Dovitinib] | 4.99
35 | c1ccc([C@H]2CN3CCSC3=N2)cc1 [L-tetramisol] | < 0
36 | COc1ncc(-c2ccc3nccc(-c4ccnnc4)c3c2)cc1NS(=O)(=O)c1ccc(F)cc1F | 69.1
37 | CNC(=O)c1ccc2cc([C@@]3(O)CCn4cncc43)ccc2c1 [Orteronel] | < 0
38 | O=c1c(O)c(-c2ccc(O)cc2)oc2cc(O)cc(O)c12 [Kaempferol] | < 0
39 | Clc1ccc(COC(Cn2ccnc2)c2ccc(Cl)cc2Cl)cc1 (centres undefined) [Econazole nitrate] | < 0
